Values of other authors, collected in US9284541B2, “Methods and compositions for protein labeling using lipoic acid ligases” (Massachusetts Institute of Technology, priority 2007, dated 2016).
Certain results were filed several times, with different values. The other results are left out here. An entry can have further records. The values listed for one entry differ for a reason that is not stated; dose, time, organism, isomer or construct need not be as stated for each record.

Protein sequences, listed by entry. Tags and fused reporters are not part of them. Residues count along the entry.
UniProt P32099, 2-338 limits assumed: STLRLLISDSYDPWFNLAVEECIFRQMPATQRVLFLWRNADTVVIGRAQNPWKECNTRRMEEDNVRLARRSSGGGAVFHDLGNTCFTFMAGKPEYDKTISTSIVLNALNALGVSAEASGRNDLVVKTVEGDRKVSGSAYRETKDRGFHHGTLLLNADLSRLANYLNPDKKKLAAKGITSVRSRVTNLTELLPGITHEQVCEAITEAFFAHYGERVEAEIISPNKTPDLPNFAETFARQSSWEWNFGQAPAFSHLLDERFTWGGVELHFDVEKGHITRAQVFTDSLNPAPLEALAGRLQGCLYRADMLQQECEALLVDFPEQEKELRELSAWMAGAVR

Target: E. coli LplA (Escherichia coli, UniProt P32099)
Settings: read-out: reported Km for lipoic acid; two reported values

In the case of `O=C(O)CCCC[C@@H]1CCSS1`, the Km is listed as 1.7 µM and 4.5 µM.
